In patent US20040136985A1, “Methods of modifying behavior of CD9-expressing cells” (priority 2002, published 2004):
Results are given in words; binding and its absence hold for the method and conditions named. Some binding calls cover weakened binding; strength is not graded here.

Chains of the proteins cited; added tags and fusions are not shown. Lines headed by an entry give the natural chain unless they say otherwise; changes in a name come on top. A line that says so, or that is headed by a name, gives the form on record, which may keep a tag or linker.
human plasma fibronectin (P02751, form named): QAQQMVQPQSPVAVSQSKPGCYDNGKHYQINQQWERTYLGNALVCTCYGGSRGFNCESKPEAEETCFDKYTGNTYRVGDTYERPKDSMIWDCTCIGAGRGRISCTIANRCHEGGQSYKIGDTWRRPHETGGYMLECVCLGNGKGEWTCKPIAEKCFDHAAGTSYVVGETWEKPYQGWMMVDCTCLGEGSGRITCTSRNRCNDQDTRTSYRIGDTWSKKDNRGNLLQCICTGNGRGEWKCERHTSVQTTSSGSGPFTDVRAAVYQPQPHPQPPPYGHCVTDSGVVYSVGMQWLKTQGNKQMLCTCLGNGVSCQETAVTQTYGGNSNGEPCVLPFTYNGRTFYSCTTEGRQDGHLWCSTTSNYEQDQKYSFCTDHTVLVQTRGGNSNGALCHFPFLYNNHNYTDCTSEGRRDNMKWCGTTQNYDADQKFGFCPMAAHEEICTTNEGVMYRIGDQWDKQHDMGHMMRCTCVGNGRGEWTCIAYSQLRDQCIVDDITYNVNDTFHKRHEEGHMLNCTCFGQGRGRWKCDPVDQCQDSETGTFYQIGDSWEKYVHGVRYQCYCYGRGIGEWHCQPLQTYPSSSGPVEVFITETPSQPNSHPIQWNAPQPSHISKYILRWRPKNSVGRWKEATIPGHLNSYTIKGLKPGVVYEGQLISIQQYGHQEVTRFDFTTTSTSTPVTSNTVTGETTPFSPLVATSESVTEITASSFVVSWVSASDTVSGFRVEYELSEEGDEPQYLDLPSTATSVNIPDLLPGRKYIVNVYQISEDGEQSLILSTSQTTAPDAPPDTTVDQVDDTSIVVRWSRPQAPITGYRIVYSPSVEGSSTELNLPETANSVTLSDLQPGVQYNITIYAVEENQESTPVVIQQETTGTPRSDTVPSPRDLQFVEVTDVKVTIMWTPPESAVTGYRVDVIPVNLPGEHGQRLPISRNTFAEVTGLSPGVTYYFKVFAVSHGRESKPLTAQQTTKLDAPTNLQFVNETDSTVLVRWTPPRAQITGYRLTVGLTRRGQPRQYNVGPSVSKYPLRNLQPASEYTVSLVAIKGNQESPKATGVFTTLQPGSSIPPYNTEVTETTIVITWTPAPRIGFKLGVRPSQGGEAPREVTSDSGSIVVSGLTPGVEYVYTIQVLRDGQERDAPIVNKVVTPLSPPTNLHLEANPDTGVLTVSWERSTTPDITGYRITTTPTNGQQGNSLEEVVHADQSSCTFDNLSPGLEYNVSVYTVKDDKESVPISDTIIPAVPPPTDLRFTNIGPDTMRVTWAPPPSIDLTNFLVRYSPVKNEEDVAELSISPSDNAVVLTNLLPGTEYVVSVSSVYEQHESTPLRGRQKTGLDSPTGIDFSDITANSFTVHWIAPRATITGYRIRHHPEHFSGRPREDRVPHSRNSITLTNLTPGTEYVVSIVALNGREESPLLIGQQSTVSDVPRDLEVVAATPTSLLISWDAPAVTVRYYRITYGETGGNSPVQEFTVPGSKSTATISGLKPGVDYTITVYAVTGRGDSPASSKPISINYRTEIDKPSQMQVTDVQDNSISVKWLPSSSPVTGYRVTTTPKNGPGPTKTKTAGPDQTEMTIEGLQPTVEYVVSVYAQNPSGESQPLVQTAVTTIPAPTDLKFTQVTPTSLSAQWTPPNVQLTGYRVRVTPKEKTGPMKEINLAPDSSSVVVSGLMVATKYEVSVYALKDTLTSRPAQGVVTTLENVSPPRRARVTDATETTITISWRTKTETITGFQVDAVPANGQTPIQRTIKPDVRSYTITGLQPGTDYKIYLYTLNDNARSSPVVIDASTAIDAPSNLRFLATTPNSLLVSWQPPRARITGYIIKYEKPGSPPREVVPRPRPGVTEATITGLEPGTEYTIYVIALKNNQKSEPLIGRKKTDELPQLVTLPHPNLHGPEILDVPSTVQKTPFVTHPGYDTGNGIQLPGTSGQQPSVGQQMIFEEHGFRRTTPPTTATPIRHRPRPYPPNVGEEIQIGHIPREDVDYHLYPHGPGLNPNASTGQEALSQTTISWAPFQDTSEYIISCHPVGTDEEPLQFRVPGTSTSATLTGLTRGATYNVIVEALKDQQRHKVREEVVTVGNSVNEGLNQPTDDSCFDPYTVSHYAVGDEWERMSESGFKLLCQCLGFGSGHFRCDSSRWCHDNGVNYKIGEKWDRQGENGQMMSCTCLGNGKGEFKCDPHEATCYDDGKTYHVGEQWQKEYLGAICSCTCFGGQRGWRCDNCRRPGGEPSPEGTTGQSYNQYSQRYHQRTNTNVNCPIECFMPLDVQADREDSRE
UniProt P21926: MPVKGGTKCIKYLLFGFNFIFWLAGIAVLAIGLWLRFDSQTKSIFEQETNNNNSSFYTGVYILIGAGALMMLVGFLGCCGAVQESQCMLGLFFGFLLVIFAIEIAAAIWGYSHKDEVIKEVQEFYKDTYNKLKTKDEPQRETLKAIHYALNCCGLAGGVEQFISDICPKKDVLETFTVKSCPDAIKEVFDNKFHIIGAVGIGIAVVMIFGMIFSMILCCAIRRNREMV

Experiments:
[1] = target: human plasma fibronectin (human) (UniProt P02751); test: SPR, FN captured by anti-FN mAbs
His6-rCD9 (human) [2] = target: His6-rCD9 (human) (UniProt P21926); test: ELISA
[3] = target: purified platelet CD9 (human) (UniProt P21926); test: ELISA
[4] = target: purified platelet CD9 (human) (UniProt P21926); test: ELISA (Examples 1-2)
peptide 6 (human) [5] = test: ELISA, immobilized peptide
[6] = target: purified platelet CD9 (human) (UniProt P21926); test: ELISA, FN on immobilized CD9
[7] = target: purified platelet CD9 (human) (UniProt P21926); test: ELISA, FN on immobilized CD9, without Ca2+
[8] = target: purified platelet CD9 (human) (UniProt P21926); test: ELISA, FN 75 µg/ml on immobilized CD9
peptide 6 (human) [9] = test: ELISA, FN 75 µg/ml on immobilized peptide 6 (10 µM coat)
[10] = target: purified platelet CD9 (human) (UniProt P21926); test: ELISA, FN 100 µg/ml on immobilized CD9, Ca2+ varied 0-4 mM
His6-rCD9 (human) [11] = target: His6-rCD9 (human) (UniProt P21926); test: ELISA, FN 0-100 µg/ml on immobilized His6-rCD9, 2.5 mM Ca2+
[12] = target: purified platelet CD9 (human) (UniProt P21926); test: ELISA, FN 0-100 µg/ml on immobilized purified platelet CD9, 2.5 mM Ca2+

Measured: binding

purified platelet CD9 (from UniProt P21926 2-228) (receptor)
binds: [1]

human plasma fibronectin (from UniProt P02751 32-2296) (ligand)
not listed: [1]
binds: all other assays above
